Measurements published in the supplement of paper PMC4604168 (melanoma cell lines).
The other results are listed elsewhere or left out. Single values are uncertain, as repeats are few or missing.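 Cells were imaged in 1,536-well plates, and nuclei stained with an antibody against cleaved PARP were counted against all DNA-stained nuclei to give the apoptosis fraction. Screening doses were chosen to leave most cells alive, and resting and induced cleaved-PARP levels differ strongly between cell lines.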

Each molecule was assayed on CBRC017 (line from a melanoma biopsy) (assay: cleaved PARP positive nuclei fraction relative to DMSO control; melanoma cells; higher = more apoptosis). Details: library dose: low library concentration; 72 h.

Row | Structure (SMILES) | cleaved PARP positive nuclei fraction
1 | O=C(Nc1cccc(Cl)c1)Nc1ncc(CCNc2ncnc3ccsc23)s1 + O=C(O)c1ccc(-c2c[nH]c3ncc(-c4ccccc4)cc23)cc1C1CCCC1 [GSK650394] (first compound 0.0008 µM, partner dose 0.16 µM) | 122%
2 | O=C(Nc1cccc(Cl)c1)Nc1ncc(CCNc2ncnc3ccsc23)s1 + CN(NC(=O)CC(=O)NN(C)C(=S)c1ccccc1)C(=S)c1ccccc1 [STA4783] (first compound 0.0008 µM, partner dose 0.006 µM) | 191%
3 | Cn1nnc2c(C(N)=O)ncn2c1=O [temozolomide] + Cc1cc([N+](=O)[O-])ccc1NS(=O)(=O)c1cc(Cl)ccc1Cl [FH535] (first compound 2 µM, partner dose 1 µM) | 998%
4 | Cc1nc(Nc2ncc(C(=O)Nc3c(C)cccc3Cl)s2)cc(N2CCN(CCO)CC2)n1 [dasatanib] + C[C@]1(c2nc3c(C(N)=O)cccc3[nH]2)CCCN1 [Veliparib] (first compound 0.004 µM, partner dose 1.4 µM) | 104%
5 | NC(=O)Nc1cc(-c2cccc(F)c2)sc1C(=O)N[C@H]1CCCNC1 + O=C(Nc1cccc(Cl)c1)Nc1ncc(CCNc2ncnc3ccsc23)s1 [SNS314] (first compound 0.02 µM, partner dose 0.0008 µM) | 213%
6 | CC1(C)NC(=O)N(c2ccc([N+](=O)[O-])c(C(F)(F)F)c2)C1=O [nilutamide] + CO[C@@H]1[C@H](N(C)C(=O)c2ccccc2)C[C@H]2O[C@]1(C)n1c3ccccc3c3c4c(c5c6ccccc6n2c5c31)C(=O)NC4 [Midostaurin] (first compound 1 µM, partner dose 0.08 µM) | 79%
7 | Cc1nc(Nc2ncc(C(=O)Nc3c(C)cccc3Cl)s2)cc(N2CCN(CCO)CC2)n1 [dasatanib] + Cn1cc(/C=C2\C(=O)Nc3cccnc32)c2ccccc21 [GW441756] (first compound 0.004 µM, partner dose 0.4 µM) | 93.3%
8 | OCc1c[nH]c2ccccc12 [Indole-3-carbinol] + Clc1ccc(Nc2nnc(Cc3ccncc3)c3ccccc23)cc1 [vatalanib] (first compound 0.8 µM, partner dose 2 µM) | 118%
9 | C=CCNC1=C2C[C@@H](C)C[C@H](OC)[C@H](O)[C@@H](C)/C=C(\C)[C@H](OC(N)=O)[C@@H](OC)/C=C\C=C(/C)C(=O)NC(=CC1=O)C2=O [Tanespimycin] + Cn1nnc2c(C(N)=O)ncn2c1=O [temozolomide] (first compound 0.002 µM, partner dose 2 µM) | 115%
10 | Cc1cc(N2CCOCC2)cc2[nH]c(-c3c(NC[C@@H](O)c4cccc(Cl)c4)cc[nH]c3=O)nc12 + Oc1nc(-c2ccc(C(F)(F)F)cc2)nc2c1CSCC2 [XAV939] (first compound 0.2 µM, partner dose 2 µM) | 88.8%
11 | Clc1ccc(Nc2nnc(Cc3ccncc3)c3ccccc23)cc1 [vatalanib] + COc1cc(Nc2ncc(F)c(Nc3ccc4c(n3)NC(=O)C(C)(C)O4)n2)cc(OC)c1OC [Tamatinib] (first compound 2 µM, partner dose 0.4 µM) | 93.6%
12 | Cc1cc(N2CCOCC2)cc2[nH]c(-c3c(NC[C@@H](O)c4cccc(Cl)c4)cc[nH]c3=O)nc12 + Oc1cc(-c2nc(-c3ccccc3)[nH]c2-c2ccncc2)ccc1Cl [L779450] (first compound 0.2 µM, partner dose 0.2 µM) | 81.6%
13 | C=CCn1c(=O)c2cnc(Nc3ccc(N4CCN(C)CC4)cc3)nc2n1-c1cccc(C(C)(C)O)n1 + Cc1cc([N+](=O)[O-])ccc1NS(=O)(=O)c1cc(Cl)ccc1Cl [FH535] (first compound 0.02 µM, partner dose 1 µM) | 223%
14 | Cc1ccc(NC(=O)c2cccc(N(C)C)c2)cc1NC(=O)c1ccc(O)cc1 + CC(C)(C)c1cnc(CSc2cnc(NC(=O)C3CCNCC3)s2)o1 [SNS-032] (first compound 2 µM, partner dose 0.01 µM) | 85%
15 | Cc1nc(Nc2ncc(C(=O)Nc3c(C)cccc3Cl)s2)cc(N2CCN(CCO)CC2)n1 [dasatanib] + NC(=O)Nc1cc(-c2cccc(F)c2)sc1C(=O)N[C@H]1CCCNC1 [AZD7762] (first compound 0.004 µM, partner dose 0.02 µM) | 404%

Copied from the list.
In cleaved PARP positive nuclei fraction, C=CCn1c(=O)c2cnc(Nc3ccc(N4CCN(C)CC4)cc3)nc2n1-c1cccc(C(C)(C)O)n1 + Cc1cc([N+](=O)[O-])ccc1NS(=O)(=O)c1cc(Cl)ccc1Cl [FH535] (first compound 0.02 µM, partner dose 1 µM) reads 223%
In cleaved PARP positive nuclei fraction, O=C(Nc1cccc(Cl)c1)Nc1ncc(CCNc2ncnc3ccsc23)s1 + O=C(O)c1ccc(-c2c[nH]c3ncc(-c4ccccc4)cc23)cc1C1CCCC1 [GSK650394] (first compound 0.0008 µM, partner dose 0.16 µM) reads 122%
